Measured data: PubChem BioAssay AID1259254 (NCATS, 2017)

Screen: 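Genome-wide screen for genes that prevent DNA re-replication in cancer cells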 (primary screen)
Cells: human HCT116 colorectal cancer cells
Reagent: single siRNA against human genes
Timing: 3 days
Measurement: 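Imaged Hoechst DNA stain sorts each cell into a cycle phase by DNA amount; per plate, G2 fraction set to 0% for non-targeting and 100% for GMNN siRNA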
Reading the numbers: G2 robust z-score and G2 cells, % of GMNN control: higher = more G2 cells, more excess DNA replication
Rule for the call: 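An siRNA counts as active if its G2 robust z-score lies at least 5 MADs above the screen median; here such calls match roughly 38% of GMNN control or more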
The whole screen tested about 59,000 reagents; this is a random part of them. About 1,550 of all reagents (2.6%) count as active. 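G2 share is only a proxy for re-replication; each gene was hit by three separate siRNAs, and active genes were retested.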 Entries without a mark were called inactive. Reagents against one gene are numbered here. Further read-outs or replicates are left out here. Not given: the amount of reagent.

Against SGPL1 #1 the deposit lists G2 robust z-score 0.21; G2 cells, % of GMNN control 4.45.
SGPL1 #2 gave G2 robust z-score 1.76; G2 cells, % of GMNN control 15.3.
Silencing of SGPL1 #3 resulted in: G2 robust z-score 1.56; G2 cells, % of GMNN control 14.
Against CCDC59 #1, the entry reads G2 robust z-score 1.06; G2 cells, % of GMNN control 10.4.
Depletion of CCDC59 #2 resulted in: G2 robust z-score -0.385; G2 cells, % of GMNN control 0.256.
Knock-down of CCDC59 #3 gave: G2 robust z-score 0.691; G2 cells, % of GMNN control 7.83.
Silencing of APPL1 #1 resulted in: G2 robust z-score 0.213; G2 cells, % of GMNN control 4.46.
APPL1 #2 showed G2 robust z-score -0.658; G2 cells, % of GMNN control -1.66.
APPL1 #3 scored G2 robust z-score -1.04; G2 cells, % of GMNN control -4.35.
Depletion of LEP #1 gave: G2 robust z-score -1.22; G2 cells, % of GMNN control -5.62.
Depletion of LEP #2 gave: G2 robust z-score 0.693; G2 cells, % of GMNN control 7.85.
After knock-down of LEP #3, the record shows G2 robust z-score -1.47; G2 cells, % of GMNN control -7.39.

Part of the list above, reformatted:
target gene	siRNA no.	G2 robust z-score	G2 cells, % of GMNN control
APPL1	2	-0.658	-1.66
APPL1	3	-1.04	-4.35
LEP	1	-1.22	-5.62

The list goes on.
With knock-down of CLIC5 #1, the record shows G2 robust z-score 3.58; G2 cells, % of GMNN control 28.1.
Against CLIC5 #2, the values are G2 robust z-score -0.292; G2 cells, % of GMNN control 0.912.
CLIC5 #3 showed G2 robust z-score -0.811; G2 cells, % of GMNN control -2.74.
With knock-down of ZBTB45 #1 the results were G2 robust z-score 1.27; G2 cells, % of GMNN control 11.9.
After knock-down of ZBTB45 #2, the record shows G2 robust z-score 0.84; G2 cells, % of GMNN control 8.88.
Against ZBTB45 #3 the deposit lists G2 robust z-score -1.03; G2 cells, % of GMNN control -4.25.
Knock-down of CEP290 #1 came out at: G2 robust z-score 1.81; G2 cells, % of GMNN control 15.7.
Depletion of CEP290 #2 came out at: G2 robust z-score 0.903; G2 cells, % of GMNN control 9.32.
For CEP290 #3 the deposit lists G2 robust z-score 0.394; G2 cells, % of GMNN control 5.74.
With knock-down of TCEAL2 #1, the record shows G2 robust z-score 0.133; G2 cells, % of GMNN control 3.91.
With knock-down of TCEAL2 #2, the record shows G2 robust z-score 0.125; G2 cells, % of GMNN control 3.85.
Knock-down of TCEAL2 #3 came out at: G2 robust z-score -0.4; G2 cells, % of GMNN control 0.151.
